Measurements published in the supplement of paper PMC10849652.
The other results are listed elsewhere or left out.

The chains behind the UniProt entries cited, without tags or fusion partners. Where a name states a change or a piece, a line headed by the entry shows the natural chain unless it says otherwise.
UniProt P17980, whole entry, looked up: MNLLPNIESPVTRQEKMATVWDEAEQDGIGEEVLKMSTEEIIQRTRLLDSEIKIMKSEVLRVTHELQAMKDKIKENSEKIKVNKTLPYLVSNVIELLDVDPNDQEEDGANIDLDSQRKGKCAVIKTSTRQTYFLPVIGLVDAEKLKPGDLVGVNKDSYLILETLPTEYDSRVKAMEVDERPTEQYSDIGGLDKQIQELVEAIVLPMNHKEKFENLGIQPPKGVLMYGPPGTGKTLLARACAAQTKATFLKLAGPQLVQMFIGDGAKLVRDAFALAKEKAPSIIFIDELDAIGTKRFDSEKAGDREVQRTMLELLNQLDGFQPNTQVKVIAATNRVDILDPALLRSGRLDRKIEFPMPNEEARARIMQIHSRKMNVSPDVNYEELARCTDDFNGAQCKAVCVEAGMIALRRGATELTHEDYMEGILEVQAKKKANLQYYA
UniProt O14818: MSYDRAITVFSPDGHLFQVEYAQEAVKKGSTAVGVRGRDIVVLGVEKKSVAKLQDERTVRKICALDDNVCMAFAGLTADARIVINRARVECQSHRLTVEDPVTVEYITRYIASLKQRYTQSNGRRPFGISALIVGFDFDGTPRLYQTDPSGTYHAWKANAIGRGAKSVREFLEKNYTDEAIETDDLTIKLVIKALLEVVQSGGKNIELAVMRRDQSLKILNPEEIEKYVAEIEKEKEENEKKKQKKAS
UniProt Q93096: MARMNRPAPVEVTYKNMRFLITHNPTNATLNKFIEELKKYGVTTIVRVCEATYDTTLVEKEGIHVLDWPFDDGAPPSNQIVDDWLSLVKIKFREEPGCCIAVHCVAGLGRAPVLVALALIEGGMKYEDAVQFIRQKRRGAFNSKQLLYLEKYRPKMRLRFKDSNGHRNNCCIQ
UniProt Q99460, whole entry, looked up: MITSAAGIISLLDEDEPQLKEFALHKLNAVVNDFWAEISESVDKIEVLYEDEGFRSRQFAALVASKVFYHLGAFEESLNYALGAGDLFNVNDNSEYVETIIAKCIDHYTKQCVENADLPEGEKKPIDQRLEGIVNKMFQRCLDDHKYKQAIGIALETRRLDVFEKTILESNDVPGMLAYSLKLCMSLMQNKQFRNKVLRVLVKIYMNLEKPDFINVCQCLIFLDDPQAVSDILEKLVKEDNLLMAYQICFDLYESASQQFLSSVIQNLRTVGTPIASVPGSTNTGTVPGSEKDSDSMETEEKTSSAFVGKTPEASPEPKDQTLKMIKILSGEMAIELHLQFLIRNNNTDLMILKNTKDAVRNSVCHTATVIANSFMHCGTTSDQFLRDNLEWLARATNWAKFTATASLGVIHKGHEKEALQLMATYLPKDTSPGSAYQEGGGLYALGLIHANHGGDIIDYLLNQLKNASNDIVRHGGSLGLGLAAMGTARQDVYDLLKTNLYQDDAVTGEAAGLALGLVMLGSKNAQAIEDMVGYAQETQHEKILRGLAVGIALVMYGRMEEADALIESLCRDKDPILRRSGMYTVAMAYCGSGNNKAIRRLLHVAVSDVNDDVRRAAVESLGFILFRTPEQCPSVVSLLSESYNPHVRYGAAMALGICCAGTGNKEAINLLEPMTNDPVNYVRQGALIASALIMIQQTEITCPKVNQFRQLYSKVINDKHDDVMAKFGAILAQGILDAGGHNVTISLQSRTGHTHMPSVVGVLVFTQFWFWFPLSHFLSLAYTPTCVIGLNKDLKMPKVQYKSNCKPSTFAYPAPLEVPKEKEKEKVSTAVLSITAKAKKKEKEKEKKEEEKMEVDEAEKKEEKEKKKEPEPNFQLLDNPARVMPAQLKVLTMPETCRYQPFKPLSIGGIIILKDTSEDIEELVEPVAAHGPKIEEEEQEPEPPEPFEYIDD
UniProt P25789: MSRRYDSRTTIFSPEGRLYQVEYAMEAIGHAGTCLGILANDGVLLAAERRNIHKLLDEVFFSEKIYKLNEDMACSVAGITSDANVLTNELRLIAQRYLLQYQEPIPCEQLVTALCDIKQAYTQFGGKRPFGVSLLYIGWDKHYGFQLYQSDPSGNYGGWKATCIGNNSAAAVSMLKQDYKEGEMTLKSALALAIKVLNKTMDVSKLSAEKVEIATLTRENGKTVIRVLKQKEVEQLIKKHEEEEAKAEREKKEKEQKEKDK
UniProt Q9BT73: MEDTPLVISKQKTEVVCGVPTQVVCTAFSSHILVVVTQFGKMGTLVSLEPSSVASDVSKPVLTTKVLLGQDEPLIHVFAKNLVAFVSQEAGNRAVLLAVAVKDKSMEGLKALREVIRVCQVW
UniProt P61289: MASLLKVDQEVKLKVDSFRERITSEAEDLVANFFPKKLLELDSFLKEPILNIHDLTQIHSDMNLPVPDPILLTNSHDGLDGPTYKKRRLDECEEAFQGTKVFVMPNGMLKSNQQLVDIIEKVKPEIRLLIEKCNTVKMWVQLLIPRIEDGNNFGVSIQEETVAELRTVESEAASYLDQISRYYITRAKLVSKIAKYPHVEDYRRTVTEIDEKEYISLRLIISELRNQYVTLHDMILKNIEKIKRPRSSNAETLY
UniProt Q9UNM6: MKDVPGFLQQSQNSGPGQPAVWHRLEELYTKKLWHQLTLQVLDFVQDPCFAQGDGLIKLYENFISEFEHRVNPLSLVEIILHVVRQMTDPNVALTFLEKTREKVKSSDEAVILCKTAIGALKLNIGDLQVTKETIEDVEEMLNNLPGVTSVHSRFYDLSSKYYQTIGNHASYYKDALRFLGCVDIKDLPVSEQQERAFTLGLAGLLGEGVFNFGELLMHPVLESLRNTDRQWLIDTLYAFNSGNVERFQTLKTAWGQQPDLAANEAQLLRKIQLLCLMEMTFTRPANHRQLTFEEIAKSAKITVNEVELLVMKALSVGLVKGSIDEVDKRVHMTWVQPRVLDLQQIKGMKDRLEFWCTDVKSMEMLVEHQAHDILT
UniProt P07602: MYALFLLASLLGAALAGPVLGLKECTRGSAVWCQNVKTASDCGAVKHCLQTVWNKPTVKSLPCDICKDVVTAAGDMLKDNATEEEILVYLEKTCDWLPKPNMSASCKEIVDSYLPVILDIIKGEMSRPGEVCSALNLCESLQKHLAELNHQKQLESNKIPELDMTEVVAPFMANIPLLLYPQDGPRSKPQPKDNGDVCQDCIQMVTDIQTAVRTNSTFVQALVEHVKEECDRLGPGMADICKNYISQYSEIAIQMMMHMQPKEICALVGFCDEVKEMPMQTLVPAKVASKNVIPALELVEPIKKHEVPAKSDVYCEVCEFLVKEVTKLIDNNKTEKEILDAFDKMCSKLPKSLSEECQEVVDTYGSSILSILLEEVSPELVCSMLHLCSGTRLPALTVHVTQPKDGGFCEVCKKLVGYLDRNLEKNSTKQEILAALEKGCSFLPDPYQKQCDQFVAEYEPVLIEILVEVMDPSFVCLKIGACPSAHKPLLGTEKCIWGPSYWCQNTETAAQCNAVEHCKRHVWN
UniProt P55036: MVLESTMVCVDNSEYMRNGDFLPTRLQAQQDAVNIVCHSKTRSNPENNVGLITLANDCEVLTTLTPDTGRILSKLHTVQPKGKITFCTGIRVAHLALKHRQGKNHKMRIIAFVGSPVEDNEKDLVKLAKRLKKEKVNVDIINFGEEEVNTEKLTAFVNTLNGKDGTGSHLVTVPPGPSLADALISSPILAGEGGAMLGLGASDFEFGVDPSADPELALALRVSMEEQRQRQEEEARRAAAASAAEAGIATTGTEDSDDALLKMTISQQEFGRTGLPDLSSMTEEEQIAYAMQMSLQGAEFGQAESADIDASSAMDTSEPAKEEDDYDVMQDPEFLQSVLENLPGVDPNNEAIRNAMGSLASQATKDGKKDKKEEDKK
UniProt Q9BZE2: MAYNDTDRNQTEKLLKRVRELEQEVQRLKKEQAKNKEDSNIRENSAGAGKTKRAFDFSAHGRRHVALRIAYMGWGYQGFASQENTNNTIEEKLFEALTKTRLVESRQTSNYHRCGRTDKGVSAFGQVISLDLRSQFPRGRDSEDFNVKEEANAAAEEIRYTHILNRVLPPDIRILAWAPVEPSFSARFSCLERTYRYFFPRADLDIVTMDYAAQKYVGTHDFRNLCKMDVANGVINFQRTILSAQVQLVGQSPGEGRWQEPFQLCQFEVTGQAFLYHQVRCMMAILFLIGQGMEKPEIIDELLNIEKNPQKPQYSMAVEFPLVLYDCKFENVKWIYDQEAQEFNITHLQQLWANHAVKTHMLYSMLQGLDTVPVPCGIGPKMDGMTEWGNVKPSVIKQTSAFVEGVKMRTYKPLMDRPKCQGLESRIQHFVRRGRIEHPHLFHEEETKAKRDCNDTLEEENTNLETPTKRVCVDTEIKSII
UniProt Q3MIT2: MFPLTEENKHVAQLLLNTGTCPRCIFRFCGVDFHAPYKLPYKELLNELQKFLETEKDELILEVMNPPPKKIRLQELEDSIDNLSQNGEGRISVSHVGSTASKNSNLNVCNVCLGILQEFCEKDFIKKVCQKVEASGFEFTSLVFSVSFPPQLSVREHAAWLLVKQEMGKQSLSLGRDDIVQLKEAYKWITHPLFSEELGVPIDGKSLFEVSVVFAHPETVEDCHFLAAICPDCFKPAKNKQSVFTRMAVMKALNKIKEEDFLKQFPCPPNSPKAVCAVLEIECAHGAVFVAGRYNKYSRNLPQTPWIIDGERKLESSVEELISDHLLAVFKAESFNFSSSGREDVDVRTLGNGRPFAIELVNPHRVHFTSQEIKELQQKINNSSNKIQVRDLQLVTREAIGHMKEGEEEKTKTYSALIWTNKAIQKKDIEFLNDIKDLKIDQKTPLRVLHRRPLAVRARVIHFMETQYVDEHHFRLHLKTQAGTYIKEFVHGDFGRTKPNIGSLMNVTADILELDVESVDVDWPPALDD
UniProt Q9BVG9: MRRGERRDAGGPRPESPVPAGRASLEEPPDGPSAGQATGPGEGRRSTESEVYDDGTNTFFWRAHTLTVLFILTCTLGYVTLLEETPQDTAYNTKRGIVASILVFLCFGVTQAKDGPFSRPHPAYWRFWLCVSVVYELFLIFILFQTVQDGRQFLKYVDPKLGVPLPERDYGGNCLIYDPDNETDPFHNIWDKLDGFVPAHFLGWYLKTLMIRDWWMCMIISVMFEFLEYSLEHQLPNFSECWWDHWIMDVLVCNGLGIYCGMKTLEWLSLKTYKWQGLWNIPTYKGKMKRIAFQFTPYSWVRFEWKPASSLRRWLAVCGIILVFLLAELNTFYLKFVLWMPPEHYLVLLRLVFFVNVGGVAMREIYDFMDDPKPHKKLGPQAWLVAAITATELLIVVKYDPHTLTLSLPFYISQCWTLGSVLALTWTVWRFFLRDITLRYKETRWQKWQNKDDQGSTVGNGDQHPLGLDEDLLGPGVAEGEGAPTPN
UniProt P78330: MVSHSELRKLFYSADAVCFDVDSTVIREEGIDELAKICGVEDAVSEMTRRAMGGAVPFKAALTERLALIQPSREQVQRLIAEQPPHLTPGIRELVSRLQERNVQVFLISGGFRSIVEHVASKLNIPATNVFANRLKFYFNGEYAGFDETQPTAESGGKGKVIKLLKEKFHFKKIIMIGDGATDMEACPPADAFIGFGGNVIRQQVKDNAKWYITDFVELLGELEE
UniProt P20962: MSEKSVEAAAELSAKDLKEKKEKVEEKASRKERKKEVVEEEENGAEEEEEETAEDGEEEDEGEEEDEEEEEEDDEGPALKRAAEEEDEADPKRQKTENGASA
UniProt Q6GMV3: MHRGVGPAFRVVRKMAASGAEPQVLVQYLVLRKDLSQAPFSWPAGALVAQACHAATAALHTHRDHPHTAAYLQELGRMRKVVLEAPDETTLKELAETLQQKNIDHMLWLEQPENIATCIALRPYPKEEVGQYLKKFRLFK

Tests used:
Test in all cases: log2 fold change, soluble protein after heating vs DMSO (PISA); higher = thermal stabilisation; K562 lysate, 10 uM; active = over 0.2 and 3.5 SD of the protein, either way, in both replicates (recomputed)
[1] = compound: C#Cc1cccc(Nc2ncnc3cc(OCCOC)c(OCCOC)cc23)c1 [erlotinib]
How it was run: (§1)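 Quantification was by TMTpro 16plex LC-MS/MS with equalised channel sums, applied to the supernatant after 21,000xg for 90 min. Samples were crude K562 extract at 1 mg/mL protein in PBS pH 7.4 with 1 mM MgCl2, treated with 10 μM compound for 30 min, heated for 3 min across 48°C-58°C, pooled and brought to 0.5% NP-40 at 4°C. Values are log-two fold changes in thermal stability relative to solvent controls, from duplicates.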

[2] = compound: C/C(=N\NC(=O)C1=CC(=CC=C1)S(=O)(=O)N2CCOCC2)/C3=C(C=CC(=C3)Cl)O
How it was run: as §1

[3] = compound: C1=CC(=CC=C1C2=NC3=C(N2)C=C(C=C3)C(=O)N)OC4=CC=C(C=C4)Cl
How it was run: as §1

[4] = compound: C1=CC2=C(C=CC(=C2)/C=C\3/C(=O)NC(=NCC4=CC=CS4)S3)N=C1
How it was run: as §1

[5] = compound: C1=CC2=NC=CN=C2C=C1/C=C/3\C(=O)NC(=O)S3
How it was run: as §1

[6] = compound: C1=CC=C(C=C1)C2=NC(=C(N2)C3=CC=NC=C3)C4=CC(=C(C=C4)Cl)O
How it was run: as §1

[7] = compound: C1=CC=C2C(=C1)C3=NNC4=CC=CC(=C43)C2=O
How it was run: as §1

[8] = compound: C1CCN(C1)C(=O)NC2=CC=CC(=C2)NC3=NC=C(C(=N3)NCCC4=CN=CN4)Br
How it was run: as §1

[9] = compound: C1CN(CCC1(CC2=CC=C(C=C2)Cl)N)C3=NC=NC4=C3C=CN4
How it was run: as §1

[10] = compound: C1COCCN1CCN2C3=CC=CC=C3N=C2NC(=O)C4=CC(=CC=C4)[N+](=O)[O-] [IRAK-1-4 Inhibitor I]
How it was run: as §1

[11] = compound: C=CC(=O)N1CCC[C@@H](n2nc(-c3ccc(Oc4ccccc4)cc3)c3c(N)ncnc32)C1 [ibrutinib]
How it was run: as §1

[12] = compound: CC(=O)c1cnc2ccc(-c3cc(Cl)c(O)c(Cl)c3)nc2c1N[C@H]1CC[C@H](CN(C)C)CC1
How it was run: as §1

[13] = compound: CC(C)(C)Cn1c(N)nc2ccc(-c3[nH]c(C(C)(C)C)nc3-c3ccc(F)cc3)nc21 [ralimetinib]
How it was run: as §1

[14] = compound: CC(C)(O)CC(=O)NCCn1ccc2ncnc(Nc3ccc(Oc4cccc(C(F)(F)F)c4)c(Cl)c3)c21
How it was run: as §1

[15] = compound: CC(C)C1=C2N=C(C=C(N2N=C1)NCC3=CC=CC=C3)NCCCCCCN
How it was run: as §1

[16] = compound: CC1=C(C(CC(=O)N1)C2=CC=C(C=C2)C(F)(F)F)C(=O)NC3=C(C=C4C(=C3)C=NN4)F
How it was run: as §1

[17] = compound: CC1=C(C2=C(C=C1)C(=O)C3=CC=CC=C3N2CCCN)C
How it was run: as §1

[18] = compound: CC1=C(C=C(C=C1)NC(=O)C2=CC(=CC=C2)C(C)(C)C#N)NC3=CC4=C(C=C3)N=CN(C4=O)C
How it was run: as §1

[19] = compound: CC1=C(C=C(C=C1)NC(=O)C2=CC(=CC=C2)N(C)C)NC(=O)C3=CC=C(C=C3)O
How it was run: as §1

[20] = compound: CC1=CC=C(C=C1)SC2=C3C=C(SC3=CN=C2)C(=O)N
How it was run: as §1

Measured: log2 fold change

PSMC3 (UniProt P17980)
inactive: [1] 0.019 | [2] 0.008 | [3] 0.002 | [4] -0.015 | [5] -0.031 | [6] 0.007 | [7] -0.027 | [8] -0.001 | [9] 0.027 | [10] 0.003 | [11] 0.009 | [12] -0.003 | [13] 0.017 | [14] 0.008 | [15] 0.003 | [16] -0.001 | [17] -0.006 | [18] -0.013 | [19] 0.002 | [20] 0.009

PSMA7 (UniProt O14818)
inactive: [1] -0.02 | [2] 0.006 | [3] -0.004 | [4] -0.007 | [5] -0.016 | [6] 0.002 | [7] 0.018 | [8] 0.027 | [9] -0.005 | [10] -0.006 | [11] -0.015 | [12] 0.011 | [13] -0.012 | [14] 0 | [15] 0.007 | [16] -0.029 | [17] -0.015 | [18] -0.025 | [19] 0.013 | [20] 0.024

PTP4A1 (UniProt Q93096)
inactive: [1] -0.005 | [2] 0.01 | [3] 0.014 | [4] -0.001 | [5] -0.013 | [6] -0.022 | [7] -0.086 | [8] 0.05 | [9] -0.066 | [10] -0.014 | [11] 0.011 | [12] 0.027 | [13] 0.015 | [14] -0.071 | [15] -0.031 | [16] -0.113 | [17] -0.007 | [18] -0.012 | [19] -0.048 | [20] 0

PSMD1 (UniProt Q99460)
inactive: [1] 0 | [2] -0.025 | [3] 0.024 | [4] -0.009 | [5] -0.023 | [6] -0.003 | [7] -0.021 | [8] 0.012 | [9] 0.007 | [10] -0.014 | [11] -0.035 | [12] -0.007 | [13] 0 | [14] -0.014 | [15] -0.013 | [16] -0.007 | [17] -0.012 | [18] 0.011 | [19] 0.021 | [20] 0.007

PSMA4 (UniProt P25789)
inactive: [1] 0.002 | [2] -0.037 | [3] 0.016 | [4] 0.025 | [5] -0.003 | [6] 0.02 | [7] 0.003 | [8] -0.006 | [9] 0 | [10] 0.003 | [11] -0.009 | [12] -0.014 | [13] -0.01 | [14] -0.021 | [15] -0.003 | [16] -0.022 | [17] -0.031 | [18] 0.01 | [19] 0.004 | [20] -0.005

PSMG3 (UniProt Q9BT73)
inactive: [1] 0.025 | [2] -0.046 | [3] 0.006 | [4] -0.038 | [5] 0 | [6] -0.002 | [7] 0.038 | [8] -0.005 | [9] -0.018 | [10] 0.018 | [11] 0.059 | [12] -0.011 | [13] -0.011 | [14] -0.06 | [15] -0.045 | [16] 0.033 | [17] -0.026 | [18] 0.042 | [19] 0.001 | [20] -0.007

PSME3 isoform 2 (UniProt P61289)
inactive: [1] -0.036 | [2] 0.003 | [3] 0.014 | [4] -0.014 | [5] 0.006 | [6] -0.004 | [7] 0.022 | [8] 0.032 | [9] -0.006 | [10] -0.017 | [11] -0.03 | [12] 0.007 | [13] -0.023 | [14] -0.019 | [15] -0.019 | [16] -0.013 | [17] 0.009 | [18] -0.018 | [19] -0.011 | [20] 0

2 successive records already listed:
PSMA4 (UniProt P25789)
inactive: [1] 0.002 | [2] -0.037 | [3] 0.016 | [4] 0.025 | [5] -0.003 | [6] 0.02 | [7] 0.003 | [8] -0.006 | [9] 0 | [10] 0.003 | [11] -0.009 | [12] -0.014 | [13] -0.01 | [14] -0.021 | [15] -0.003 | [16] -0.022 | [17] -0.031 | [18] 0.01 | [19] 0.004 | [20] -0.005

PSMG3 (UniProt Q9BT73)
inactive: [1] 0.025 | [2] -0.046 | [3] 0.006 | [4] -0.038 | [5] 0 | [6] -0.002 | [7] 0.038 | [8] -0.005 | [9] -0.018 | [10] 0.018 | [11] 0.059 | [12] -0.011 | [13] -0.011 | [14] -0.06 | [15] -0.045 | [16] 0.033 | [17] -0.026 | [18] 0.042 | [19] 0.001 | [20] -0.007

(further entries)

PSMD13 (UniProt Q9UNM6)
inactive: [1] -0.012 | [2] 0.002 | [3] -0.026 | [4] -0.003 | [5] -0.044 | [6] -0.007 | [7] 0.008 | [8] 0.013 | [9] -0.019 | [10] -0.005 | [11] -0.016 | [12] 0.015 | [13] 0.029 | [14] 0 | [15] -0.009 | [16] -0.02 | [17] 0.025 | [18] 0.012 | [19] -0.006 | [20] 0.026

PSAP isoform 3 (UniProt P07602)
inactive: [1] -0.022 | [2] 0.044 | [3] -0.001 | [4] 0.013 | [5] 0.003 | [6] 0.003 | [7] -0.004 | [8] 0.033 | [9] 0.027 | [10] -0.015 | [11] 0.048 | [12] -0.019 | [13] -0.008 | [14] 0.029 | [15] 0.058 | [16] -0.003 | [17] 0.094 | [18] -0.077 | [19] -0.01 | [20] 0.042

PSMD4 (UniProt P55036)
inactive: [1] 0.001 | [2] -0.017 | [3] -0.003 | [4] 0.01 | [5] -0.011 | [6] 0.007 | [7] -0.019 | [8] 0.008 | [9] 0.031 | [10] -0.012 | [11] -0.024 | [12] 0.001 | [13] -0.007 | [14] 0.002 | [15] 0.007 | [16] -0.026 | [17] -0.004 | [18] 0.018 | [19] 0.001 | [20] -0.003

PUS3 (UniProt Q9BZE2)
inactive: [1] -0.014 | [2] 0.043 | [3] -0.028 | [4] -0.048 | [5] 0.048 | [6] -0.006 | [7] -0.064 | [8] -0.028 | [9] 0.097 | [10] -0.058 | [11] -0.034 | [12] -0.025 | [13] 0.05 | [14] 0.094 | [15] -0.046 | [16] 0.045 | [17] 0.136 | [18] -0.12 | [19] -0.006 | [20] 0

PUS10 (UniProt Q3MIT2)
inactive: [1] -0.014 | [2] 0.068 | [3] -0.002 | [4] 0.011 | [5] -0.006 | [6] 0.043 | [7] -0.102 | [8] -0.007 | [9] -0.008 | [10] 0.003 | [11] -0.048 | [12] 0.007 | [13] 0.051 | [14] 0.015 | [15] 0.009 | [16] 0.037 | [17] -0.027 | [18] 0.022 | [19] -0.009 | [20] -0.027

PTDSS2 (UniProt Q9BVG9)
inactive: [1] -0.002 | [2] -0.003 | [3] -0.104 | [4] -0.021 | [5] 0.095 | [6] -0.014 | [7] -0.08 | [8] -0.056 | [9] 0.02 | [10] 0.024 | [11] -0.018 | [12] 0.019 | [13] 0.007 | [14] -0.075 | [15] -0.042 | [16] 0.025 | [17] 0.021 | [18] 0.013 | [19] -0.037 | [20] 0.003

PSPH (UniProt P78330)
inactive: [1] -0.014 | [2] -0.051 | [3] 0.027 | [4] -0.007 | [5] 0.011 | [6] -0.003 | [7] -0.011 | [8] 0.013 | [9] 0.015 | [10] 0.029 | [11] 0.026 | [12] 0.017 | [13] -0.005 | [14] -0.048 | [15] -0.021 | [16] -0.015 | [17] 0.002 | [18] 0.034 | [19] -0.007 | [20] -0.005

PTMS (UniProt P20962)
inactive: [1] -0.033 | [2] 0.01 | [3] 0.019 | [4] -0.01 | [5] -0.002 | [6] 0.034 | [7] 0.024 | [8] -0.026 | [9] 0 | [10] 0.008 | [11] 0.025 | [12] -0.015 | [13] 0.003 | [14] 0.004 | [15] 0.02 | [16] -0.012 | [17] -0.017 | [18] 0.014 | [19] -0.015 | [20] -0.038

PTRHD1 (UniProt Q6GMV3)
inactive: [1] 0.03 | [2] 0.052 | [3] -0.024 | [4] -0.056 | [5] -0.088 | [6] -0.049 | [7] -0.07 | [8] 0.009 | [9] -0.018 | [10] -0.013 | [11] 0.042 | [12] -0.101 | [13] -0.007 | [14] -0.045 | [15] 0 | [16] -0.097 | [17] -0.107 | [18] 0.072 | [19] -0.005 | [20] 0.046
